Patent US6033882A, “Chiral synthesis of 2-hydroxy carboxylic acids with a dehydrogenase” (Genzyme Corporation, priority 1994, dated 2000)
At least one structure is not confirmed: it was looked up by name or label, or the drawing left a doubt.

The molecules below were run against T1, Lactobacillus delbrueckii ssp. Bulgaricus R-2-hydroxy acid dehydrogenase (LB2HADH), wild type (H206), SEQ ID NO:1 (Lactobacillus delbrueckii, UniProt Q48534) (assay: Steady-state kinetics of 2-keto acid reduction, followed by NADH oxidation). Conditions: pH 7.5; [NADH] = 0.2 mM.
T1 construct: no tag mentioned
T1 sequence (Q48534 1-333): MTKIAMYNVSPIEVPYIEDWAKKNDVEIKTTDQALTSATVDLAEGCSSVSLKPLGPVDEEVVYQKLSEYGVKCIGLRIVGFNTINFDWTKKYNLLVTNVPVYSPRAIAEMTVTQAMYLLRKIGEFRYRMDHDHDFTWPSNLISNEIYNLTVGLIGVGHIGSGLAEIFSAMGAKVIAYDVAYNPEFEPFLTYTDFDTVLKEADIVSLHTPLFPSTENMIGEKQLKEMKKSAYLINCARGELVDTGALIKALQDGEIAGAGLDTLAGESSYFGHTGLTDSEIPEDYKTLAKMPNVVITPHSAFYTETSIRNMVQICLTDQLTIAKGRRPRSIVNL
Type: biochemical
Text: Since 1950, a number of workers have investigated the reduction of 2-oxo carboxylic acids catalysed by R-hydroxy acid dehydrogenases. For these studies, enzymes isolated from a variety of bacte rial sources have bee n employed. For a given 2-oxo acid, a given enzyme activity may be examined by UV spectroscopy and quantified with the Michaelis constant, Km, and the catalytic turnover, kcat.
The two compartment model for the binding pocket of the enzyme is illustrated in accompanying FIG. 1.
The substrate specificity of the purified enzyme was established by following the kinetics of reduction of a variety of 2-ketoacids (see Table 2 above).
(The steady-state kinetic constants of LB2HADH and H206Q in Table 6 below were obtained using standard stopped flow measurements.)

SMILES | Vm (VM (app): turnover at optimal substrate concentration)
O=C(O)C(=O)CCC1CCCC1 [cyclopentylmethyl, 4-cyclopentyl-2-keto-butanoate] | 28 s⁻¹
CCCC(=O)C(=O)O [ketovalerate] | 19 s⁻¹
CC(C)C(=O)C(=O)O [ketoisovalerate] | 15 s⁻¹
CCC(=O)C(=O)O [ketobutyrate] | 47 s⁻¹
CCCCC(=O)C(=O)O [ketocaproate] | 13 s⁻¹
